Laboratory results published in publication PMC7819943, “Rice protein-binding microarrays: a tool to detect cis-acting elements near promoter regions in rice”.
The list shows a part of the results.

Sequences of proteins named here, by UniProt entry; tags and fusion partners are left off.
UniProt Q0JBA9, entry or part of it: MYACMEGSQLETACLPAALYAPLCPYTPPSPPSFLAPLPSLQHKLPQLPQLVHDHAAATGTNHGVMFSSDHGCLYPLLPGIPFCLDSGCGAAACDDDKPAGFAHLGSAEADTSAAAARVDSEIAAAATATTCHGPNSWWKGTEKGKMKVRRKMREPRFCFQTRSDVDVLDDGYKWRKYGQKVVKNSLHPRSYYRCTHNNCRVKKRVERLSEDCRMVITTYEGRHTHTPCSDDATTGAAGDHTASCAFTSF

molecular target: OsWRKY34 (Oryza sativa, UniProt Q0JBA9 1-250); assay: protein-binding microarray (RPBM); PBS, 2% BSA, 51.3 ng/ul salmon testes DNA, 50 uM zinc acetate, 200 nM TF, 25 C, 1 h; high values mean tight binding; details: protein: recombinant; tags: N-terminal polyhistidine and DsRed monomer fusion (pET32a); label: CyDye5-dUTP incorporated in the synthesized complementary strand; 3' TTTTT single-stranded linker to array surface; dsDNA, one strand shown
In short: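 For the binding signal, per-feature fluorescence intensity was read in arbitrary units on an Axon 4000B scanner. Before scanning, a 2% BSA-blocked custom Agilent array made double-stranded with Cy5-dUTP was washed after 1 h at 25 °C with 200 nM protein and 50 µM zinc acetate. The proteins were Ni–NTA-purified transcription factors with N-terminal polyhistidine and DsRed fusions, expressed in E. coli BL21-CodonPlus.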

Sequence | binding signal
GATTTACCCTACTCGTGATAATACTTGCTAAATATATATTCGGAGTCACCTAGTGCAG | 9910 fluorescence intensity (a.u.)
GCACTTTGAACCGCCCTCACACACCCTGCACCCACTGCTCCGGAGTCACCTAGTGCAG | 10700 fluorescence intensity (a.u.)
GCATTCATATTTCTCTCCACTCGTAATCCCATATAATTCACGGAGTCACCTAGTGCAG | 8700 fluorescence intensity (a.u.)
ACATGGATACCCACGGCTATACTTATTTTGGGACCGAGGTCGGAGTCACCTAGTGCAG | 8430 fluorescence intensity (a.u.)
TCAAGTTTGAGTCCTTTTGGGCGCGCCTTGACGGTTTTCACGGAGTCACCTAGTGCAG | 8620 fluorescence intensity (a.u.)
TTTCCACCGCATTTCCAAGGCTCCTCGTCCATGTCCTCGTCGGAGTCACCTAGTGCAG | 8580 fluorescence intensity (a.u.)
CTCACTCGCTTGCGCTTCACCTCGCGGCATCGACTTCCTACGGAGTCACCTAGTGCAG | 11500 fluorescence intensity (a.u.)
AATTTTTCTCCAGCTGTGCAATATACACACACATTTGCGCCGGAGTCACCTAGTGCAG | 8420 fluorescence intensity (a.u.)
GTGGCTTTTTGTGGTTTATGCACACCATTGGCAGCTGCTACGGAGTCACCTAGTGCAG | 8720 fluorescence intensity (a.u.)
TTCGATCACGCAATTCACATTTGCTACTTGGAGGCACATCCGGAGTCACCTAGTGCAG | 8250 fluorescence intensity (a.u.)
CGAACCCCTCTGCACAGCCATTGGTATGGTATCTTGTTTCCGGAGTCACCTAGTGCAG | 8370 fluorescence intensity (a.u.)
ATTTTTTATTTCTTTTGTTTCAAATTTCAGTTCTTTTTATCGGAGTCACCTAGTGCAG | 9720 fluorescence intensity (a.u.)
ATATGCATAAATCACTGATTTGGTCATCTTTTTTCCTTGTCGGAGTCACCTAGTGCAG | 8360 fluorescence intensity (a.u.)
TCCACCTGGTTTCCTTTTTTGGCACCGTATTACTTTCCTACGGAGTCACCTAGTGCAG | 9930 fluorescence intensity (a.u.)
CGCCGTCGCCGCCGCCGCCGCCGCCATCTCCACCTCCGCCCGGAGTCACCTAGTGCAG | 8500 fluorescence intensity (a.u.)
ATCCGTTGCTCCGTTTTACATGTGTGAAGGGTTAGTTTCCCGGAGTCACCTAGTGCAG | 9320 fluorescence intensity (a.u.)
CCTTCCAAGATCCCAACCCCTTTTCTTCTTTTTTTTTGTTCGGAGTCACCTAGTGCAG | 11400 fluorescence intensity (a.u.)
TTCTACTCGCTGACCTTGCTGCTATGCCTCGCGTGCTCGCCGGAGTCACCTAGTGCAG | 10900 fluorescence intensity (a.u.)
GGGCCGATCTGGACGCCGTTGACCCGCCCGATTCGGCTCGCGGAGTCACCTAGTGCAG | 9200 fluorescence intensity (a.u.)
GGTGCACTGAGGAGAGGAGGGGTGGGTAAGGAGCAGATGACGGAGTCACCTAGTGCAG | 13100 fluorescence intensity (a.u.)
TACGCTATATCACAATTCTTATTTTGCATGCGGTTCAAGTCGGAGTCACCTAGTGCAG | 9490 fluorescence intensity (a.u.)
AATCAACCTTGTTGTTCTCTGTAGCGCTTTCCTTTGGATTCGGAGTCACCTAGTGCAG | 9560 fluorescence intensity (a.u.)
CATCGCATCTACTGATTCTGCAGCGCAATATCAGTACCAACGGAGTCACCTAGTGCAG | 8750 fluorescence intensity (a.u.)
AATATCTTCTATAGGTTCGTGTTCGAGACGGATCATCACACGGAGTCACCTAGTGCAG | 8600 fluorescence intensity (a.u.)
CGTTCGCATCCACCACCAGTGCTCCGCCTGCCAGATCCATCGGAGTCACCTAGTGCAG | 9140 fluorescence intensity (a.u.)
TTGGGCTGTGTTATATCTTCTGAGTTGCACACCTGCATTGCGGAGTCACCTAGTGCAG | 8210 fluorescence intensity (a.u.)
CAGCGATCGCGTGTGTTCTTGGTTCCAATTCGTCGCCTGACGGAGTCACCTAGTGCAG | 8440 fluorescence intensity (a.u.)

As entered above.
binding signal with TTCTACTCGCTGACCTTGCTGCTATGCCTCGCGTGCTCGCCGGAGTCACCTAGTGCAG is entered as 10900 fluorescence intensity (a.u.)
binding signal with CGAACCCCTCTGCACAGCCATTGGTATGGTATCTTGTTTCCGGAGTCACCTAGTGCAG is entered as 8370 fluorescence intensity (a.u.)

2 records picked at random from those above:
Sequence | binding signal
CGCCGTCGCCGCCGCCGCCGCCGCCATCTCCACCTCCGCCCGGAGTCACCTAGTGCAG | 8500 fluorescence intensity (a.u.)
CGAACCCCTCTGCACAGCCATTGGTATGGTATCTTGTTTCCGGAGTCACCTAGTGCAG | 8370 fluorescence intensity (a.u.)

Additional entries follow:

Sequence | binding signal
ATCTCTTTACCTCAATCTCGCATATATCCTAGCACCAACGCGGAGTCACCTAGTGCAG | 8570 fluorescence intensity (a.u.)
ATTCTTCTAATATATTGACGTGTAATTCTTCTGCGCATTCCGGAGTCACCTAGTGCAG | 9640 fluorescence intensity (a.u.)
GCTGACATGTGGGCCCCACGTTTTTTTTAAATTTTTTTGCCGGAGTCACCTAGTGCAG | 9020 fluorescence intensity (a.u.)
CTATCTGTGCACAACGTTTGACGGTTCGTCTTATTTAAAACGGAGTCACCTAGTGCAG | 8640 fluorescence intensity (a.u.)
GCCTTCAATCTTTAAAACACGTCGTTTTGCACAAAGTTCCCGGAGTCACCTAGTGCAG | 8770 fluorescence intensity (a.u.)
CATATTTACTATCTTTGTACGATCTACATCTCTTCCAAATCGGAGTCACCTAGTGCAG | 10800 fluorescence intensity (a.u.)
TTCCTTTTGCTTGCTGCCTTCCGCCAGATTTTTCCTCTTCCGGAGTCACCTAGTGCAG | 10100 fluorescence intensity (a.u.)
TATAGATATCACGTATGTTGTTGCCTAGATCATCTGATTCCGGAGTCACCTAGTGCAG | 9110 fluorescence intensity (a.u.)
CGACTCTTCCTCGCTTTCTCGCTTCTCTCTCTGCGCCACTCGGAGTCACCTAGTGCAG | 12400 fluorescence intensity (a.u.)
CTTCACACTTCATTCATCAAATCCAACGGCTCATATTCCTCGGAGTCACCTAGTGCAG | 12700 fluorescence intensity (a.u.)
CACCCTGCCGGACTCCTCGCCTGTGTTGCACCAGCTCTCCCGGAGTCACCTAGTGCAG | 8230 fluorescence intensity (a.u.)
GTACTTGCCCGCGAGACTCCTACCACTCTCTGATCCCTATCGGAGTCACCTAGTGCAG | 9370 fluorescence intensity (a.u.)
AAATGCGCGCCAATCCCTTTCTTGTTTGTTTAAACCTCTCCGGAGTCACCTAGTGCAG | 10400 fluorescence intensity (a.u.)
AGTCTTTACTCTCCTCAAATTCTTGTGTTTTTTCTGTGGTCGGAGTCACCTAGTGCAG | 8930 fluorescence intensity (a.u.)
AAGTTCCTATTTACCCAGCTGCATTCGCCGATTGTTTAGTCGGAGTCACCTAGTGCAG | 9320 fluorescence intensity (a.u.)
ACCCAATACACAAGGACCGGCCCATTTATTCCCCAAAGGCCGGAGTCACCTAGTGCAG | 8660 fluorescence intensity (a.u.)
ATTATTCAGTGTTGCAGTATCAACTAAGAGCTCTATTTTCCGGAGTCACCTAGTGCAG | 8310 fluorescence intensity (a.u.)
TTGACGCCGTTGACTTTTTAATACATGTTTGACCATTCGTCGGAGTCACCTAGTGCAG | 44300 fluorescence intensity (a.u.)
CTCTCTCGCGCGCGCTTGCCCCGCCATATATACCGGCGAGCGGAGTCACCTAGTGCAG | 8690 fluorescence intensity (a.u.)
TCCCATCGAAGCTCCATCCAAGGTTTTTCCTCCAATATTTCGGAGTCACCTAGTGCAG | 11400 fluorescence intensity (a.u.)
TGCTTGGGGATTCTGAATCTGTTCTTGTTGTCACTTGTCACGGAGTCACCTAGTGCAG | 8100 fluorescence intensity (a.u.)
AATCATTGGTCAACCCAACTTGATCATGGCAACCTAAAAGCGGAGTCACCTAGTGCAG | 9020 fluorescence intensity (a.u.)
GTCCTGGTTTTTATCATCCAATGGTCCTGAGTTCTATAATCGGAGTCACCTAGTGCAG | 8700 fluorescence intensity (a.u.)
ACCCGCCCGCGTGCGCGCGCCCAACCGCAACATCCCTCGACGGAGTCACCTAGTGCAG | 8250 fluorescence intensity (a.u.)
ACCATGTTGACTTTTTGCACATTTATAGAATCTTTTGGTACGGAGTCACCTAGTGCAG | 21800 fluorescence intensity (a.u.)
ACCTCATATGTTTAATACAACTTTTTAGTTCTTCTTAATTCGGAGTCACCTAGTGCAG | 11100 fluorescence intensity (a.u.)
TGTTGTGTAAGAAGGCCACATAAAATTTTTCATATTTTTCCGGAGTCACCTAGTGCAG | 9230 fluorescence intensity (a.u.)
